Results are given in words; binding and its absence hold for the method and conditions named. Binding seen in cells or lysates may run through a third protein. A yes stands for co-enrichment or nearness to the bait. Other partners may have been found. Tags and fused reporters may be left off the sequences shown.
Target: T1, BirA*-fused ICOS (mouse) (UniProt Q9WVS0)
T1 sequence: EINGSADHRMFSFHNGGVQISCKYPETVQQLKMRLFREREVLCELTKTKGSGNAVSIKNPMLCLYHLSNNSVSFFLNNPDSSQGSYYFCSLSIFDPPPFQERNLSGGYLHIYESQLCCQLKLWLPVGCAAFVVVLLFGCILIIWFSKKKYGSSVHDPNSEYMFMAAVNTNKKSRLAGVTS
Assay: proximity labelling; BioID: Jurkat cells with BirA*-fused ICOS or ICOS-CD44TM, 50 μM biotin for 24 h; RIPA lysis; streptavidin Dynabeads; blotted for p85, Lck and Fyn

Chains of the proteins cited; added tags and fusions are not shown.
UniProt P06239: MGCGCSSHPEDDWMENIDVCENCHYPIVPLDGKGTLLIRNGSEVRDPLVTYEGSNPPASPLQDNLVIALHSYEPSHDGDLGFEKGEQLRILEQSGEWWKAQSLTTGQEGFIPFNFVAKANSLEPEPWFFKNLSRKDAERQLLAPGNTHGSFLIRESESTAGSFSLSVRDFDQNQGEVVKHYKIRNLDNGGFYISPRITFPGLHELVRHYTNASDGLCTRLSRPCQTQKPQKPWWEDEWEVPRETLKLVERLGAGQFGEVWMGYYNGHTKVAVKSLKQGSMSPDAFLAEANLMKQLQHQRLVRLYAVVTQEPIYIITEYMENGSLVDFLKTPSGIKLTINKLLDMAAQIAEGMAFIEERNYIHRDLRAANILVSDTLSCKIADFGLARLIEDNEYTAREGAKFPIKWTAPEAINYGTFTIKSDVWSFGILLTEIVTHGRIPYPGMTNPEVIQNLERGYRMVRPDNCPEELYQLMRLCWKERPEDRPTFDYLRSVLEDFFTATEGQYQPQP

Substance | binding
regulatory subunit p85 of phosphoinositide-3 kinase (PI3K) (human (endogenous in Jurkat)) | binds
tyrosine kinase Lck (endogenous) (from UniProt P06239 1-509) (enzyme) | binds weakly

From publication PMC7000777
